# Test results taken from doi:10.64898/2025.12.10.693398.
# By UniProt entry, the sequences of proteins in these tests, tags left out.
# UniProt P62814: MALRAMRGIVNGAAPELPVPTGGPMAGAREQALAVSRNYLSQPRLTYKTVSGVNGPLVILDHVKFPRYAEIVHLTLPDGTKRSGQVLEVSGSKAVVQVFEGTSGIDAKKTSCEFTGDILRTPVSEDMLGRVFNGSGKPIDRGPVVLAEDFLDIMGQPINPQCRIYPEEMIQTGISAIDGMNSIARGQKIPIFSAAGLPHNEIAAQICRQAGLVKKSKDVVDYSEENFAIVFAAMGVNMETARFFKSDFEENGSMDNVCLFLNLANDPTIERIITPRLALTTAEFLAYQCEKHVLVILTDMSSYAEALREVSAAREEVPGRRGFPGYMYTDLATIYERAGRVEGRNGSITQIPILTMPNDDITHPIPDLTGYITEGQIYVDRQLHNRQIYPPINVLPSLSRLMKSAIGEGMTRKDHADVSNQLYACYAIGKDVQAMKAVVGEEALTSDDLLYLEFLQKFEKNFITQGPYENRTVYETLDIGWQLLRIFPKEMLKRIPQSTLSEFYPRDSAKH
# UniProt Q9Z1G4: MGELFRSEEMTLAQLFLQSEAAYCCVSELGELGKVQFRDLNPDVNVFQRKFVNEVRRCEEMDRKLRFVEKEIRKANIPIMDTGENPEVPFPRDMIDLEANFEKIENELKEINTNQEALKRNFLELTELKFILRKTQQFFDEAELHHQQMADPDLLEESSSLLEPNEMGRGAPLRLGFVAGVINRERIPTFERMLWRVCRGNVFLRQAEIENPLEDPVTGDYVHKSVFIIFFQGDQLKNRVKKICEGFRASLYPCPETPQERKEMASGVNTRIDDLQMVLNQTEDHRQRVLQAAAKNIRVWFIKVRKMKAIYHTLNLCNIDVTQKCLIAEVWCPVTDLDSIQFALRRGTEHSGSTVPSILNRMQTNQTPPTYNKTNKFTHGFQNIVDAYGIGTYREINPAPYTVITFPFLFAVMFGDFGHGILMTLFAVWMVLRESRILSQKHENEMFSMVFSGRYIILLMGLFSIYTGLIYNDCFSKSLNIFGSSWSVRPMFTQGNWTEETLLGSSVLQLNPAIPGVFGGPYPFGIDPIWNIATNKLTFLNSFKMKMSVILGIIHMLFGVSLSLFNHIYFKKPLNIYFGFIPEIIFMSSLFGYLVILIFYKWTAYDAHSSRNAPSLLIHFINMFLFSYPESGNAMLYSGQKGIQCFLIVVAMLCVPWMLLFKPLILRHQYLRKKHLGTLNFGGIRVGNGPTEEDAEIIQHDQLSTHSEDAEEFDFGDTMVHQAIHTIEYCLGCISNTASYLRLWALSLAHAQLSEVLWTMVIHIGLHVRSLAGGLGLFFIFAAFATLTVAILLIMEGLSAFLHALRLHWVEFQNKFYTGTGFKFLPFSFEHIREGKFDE
# UniProt P15920: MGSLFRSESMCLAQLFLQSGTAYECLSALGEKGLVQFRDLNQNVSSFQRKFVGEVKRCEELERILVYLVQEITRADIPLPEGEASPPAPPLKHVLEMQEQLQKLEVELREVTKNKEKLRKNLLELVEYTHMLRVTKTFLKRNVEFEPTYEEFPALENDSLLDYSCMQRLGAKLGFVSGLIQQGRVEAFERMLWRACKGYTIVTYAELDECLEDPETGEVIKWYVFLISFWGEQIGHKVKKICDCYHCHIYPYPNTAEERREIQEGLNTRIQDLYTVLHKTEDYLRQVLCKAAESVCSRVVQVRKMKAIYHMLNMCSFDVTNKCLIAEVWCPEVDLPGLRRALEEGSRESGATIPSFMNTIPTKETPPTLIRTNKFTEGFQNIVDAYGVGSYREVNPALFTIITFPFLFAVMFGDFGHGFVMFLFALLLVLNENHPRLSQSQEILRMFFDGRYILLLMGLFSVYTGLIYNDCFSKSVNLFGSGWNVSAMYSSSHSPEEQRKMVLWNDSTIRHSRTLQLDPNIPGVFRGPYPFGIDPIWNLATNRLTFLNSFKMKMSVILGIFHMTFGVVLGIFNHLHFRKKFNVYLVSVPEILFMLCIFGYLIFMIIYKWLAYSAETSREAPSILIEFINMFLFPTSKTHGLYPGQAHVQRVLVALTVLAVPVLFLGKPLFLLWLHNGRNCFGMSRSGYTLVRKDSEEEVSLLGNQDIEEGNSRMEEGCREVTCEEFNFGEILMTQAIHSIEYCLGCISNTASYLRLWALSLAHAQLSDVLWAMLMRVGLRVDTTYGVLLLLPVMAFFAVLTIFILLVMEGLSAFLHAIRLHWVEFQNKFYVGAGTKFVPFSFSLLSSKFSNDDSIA
# UniProt Q920I9: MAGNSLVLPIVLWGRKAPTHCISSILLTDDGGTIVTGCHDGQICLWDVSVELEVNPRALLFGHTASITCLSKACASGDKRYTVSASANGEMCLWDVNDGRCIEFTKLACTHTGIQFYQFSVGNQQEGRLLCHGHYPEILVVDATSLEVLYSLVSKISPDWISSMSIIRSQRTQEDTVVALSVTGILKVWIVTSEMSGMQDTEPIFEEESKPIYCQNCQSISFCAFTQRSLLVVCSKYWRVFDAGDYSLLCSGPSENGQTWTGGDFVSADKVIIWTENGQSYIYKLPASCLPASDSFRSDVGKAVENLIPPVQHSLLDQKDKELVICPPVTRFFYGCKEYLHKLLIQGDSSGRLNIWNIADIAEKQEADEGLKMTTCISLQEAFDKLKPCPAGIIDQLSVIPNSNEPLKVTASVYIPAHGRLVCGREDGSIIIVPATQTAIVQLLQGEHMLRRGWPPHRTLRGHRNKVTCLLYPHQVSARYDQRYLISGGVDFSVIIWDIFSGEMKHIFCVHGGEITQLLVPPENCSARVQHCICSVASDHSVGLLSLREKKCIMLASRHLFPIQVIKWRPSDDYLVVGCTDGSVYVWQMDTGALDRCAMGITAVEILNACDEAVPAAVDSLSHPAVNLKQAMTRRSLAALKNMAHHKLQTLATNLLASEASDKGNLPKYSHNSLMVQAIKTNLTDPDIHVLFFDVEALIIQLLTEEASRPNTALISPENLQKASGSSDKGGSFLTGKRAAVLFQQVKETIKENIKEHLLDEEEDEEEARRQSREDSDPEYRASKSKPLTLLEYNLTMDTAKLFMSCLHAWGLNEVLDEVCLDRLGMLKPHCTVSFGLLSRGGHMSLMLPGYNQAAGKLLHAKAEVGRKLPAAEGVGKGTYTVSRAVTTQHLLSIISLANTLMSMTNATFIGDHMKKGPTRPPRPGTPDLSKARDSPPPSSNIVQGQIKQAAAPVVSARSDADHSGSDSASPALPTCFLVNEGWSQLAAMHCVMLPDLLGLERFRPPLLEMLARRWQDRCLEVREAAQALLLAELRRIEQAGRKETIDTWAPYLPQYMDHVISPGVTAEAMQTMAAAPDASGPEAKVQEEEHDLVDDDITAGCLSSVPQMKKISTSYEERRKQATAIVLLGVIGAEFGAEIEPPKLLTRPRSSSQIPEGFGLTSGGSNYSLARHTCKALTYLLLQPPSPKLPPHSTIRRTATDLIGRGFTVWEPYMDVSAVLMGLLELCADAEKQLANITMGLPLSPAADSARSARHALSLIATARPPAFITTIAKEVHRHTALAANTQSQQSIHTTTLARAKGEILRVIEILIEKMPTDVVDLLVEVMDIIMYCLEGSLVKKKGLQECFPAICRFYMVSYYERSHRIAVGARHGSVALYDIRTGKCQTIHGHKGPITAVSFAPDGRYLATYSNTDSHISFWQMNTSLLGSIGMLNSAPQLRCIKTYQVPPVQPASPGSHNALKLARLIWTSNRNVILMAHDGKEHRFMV
# No constants are given. Whether binding was seen depends on the method and setting. In cells and extracts the contact can be indirect. Some entries that bind do so weakly or less than the wild type.
# Molecular target: HA-V1b2 (mouse) (UniProt P62814)
# Test: co-IP
row,Substance,binding
1,Flag-Voa1 (from UniProt Q9Z1G4 1-839),binds
2,Flag-Voa2 (from UniProt P15920 1-856),binds
3,V5-Wdr7 (from UniProt Q920I9 1-1489),binds
